PubChem BioAssay AID743121 | NCATS – 2013
In all, the deposit lists about 26,000 reagents; this is a random part of them. Of all reagents, 167 (0.63%) were called active. 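Calls are per gene from RSA p-values that are not deposited; an individual active-marked siRNA can sensitise only weakly.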 A number with no mark means an inactive call. Not all columns of the deposit are shown.

Test: 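Partners whose loss is lethal together with topoisomerase I blockade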 (primary screen)
Cell system: MDA-MB-231 cells, a human breast cancer line
Knock-down reagent: single siRNA against human genes, 20 nM siRNA (0.8 pmol per well)
Time to read-out: 120 h (drug added 48 h after transfection, read 72 h later)
Treatment: camptothecin 20 nM (about EC30) for 72 h; vehicle 0.1% DMSO in parallel plates
Measured: 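Cell viability by ATP luminescence (CellTiter-Glo) as % of non-targeting siRNA wells, and the log2 ratio of viability without drug over viability with camptothecin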
Scale: log2 vehicle/camptothecin viability: higher = stronger sensitisation to camptothecin; viability with camptothecin: higher = more viable cells
Hit rule: 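Active genes have an RSA gene-level p-value below 0.001, computed from the ratios of their separate siRNAs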

gene symbol | PubChem SID | log2 vehicle/camptothecin viability | viability with camptothecin (% of control)
PPP1R9B (protein phosphatase 1 regulatory subunit 9B) | SID164546273 | 0.446 | 63
PPP1R9B (protein phosphatase 1 regulatory subunit 9B) | SID164546274 | -0.0257 | 85
PPP1R9B (protein phosphatase 1 regulatory subunit 9B) | SID164546278 | -0.72 | 67.3
PPP1R9B (protein phosphatase 1 regulatory subunit 9B) | SID164546280 | -0.195 | 113
STX2 (syntaxin 2) | SID164363540 | 0.265 | 60.8
STX2 (syntaxin 2) | SID164363542 | -0.157 | 90.5
STX2 (syntaxin 2) | SID164363543 | -0.31 | 101
STX2 (syntaxin 2) | SID164363548 | -0.132 | 82.2
TIAL1 (TIA1 cytotoxic granule associated RNA binding protein like 1) | SID164391818 | -0.398 | 118
TIAL1 (TIA1 cytotoxic granule associated RNA binding protein like 1) | SID164391819 | -0.437 | 59.6
TIAL1 (TIA1 cytotoxic granule associated RNA binding protein like 1) | SID164391821 | -0.282 | 66.8
TIAL1 (TIA1 cytotoxic granule associated RNA binding protein like 1) | SID164391822 | -0.296 | 96.2
GPER1 (G protein-coupled estrogen receptor 1) | SID164367396 | 0.791 | 47
GPER1 (G protein-coupled estrogen receptor 1) | SID164367397 | -0.359 | 63.3
GPER1 (G protein-coupled estrogen receptor 1) | SID164367398 | -0.184 | 101
GPER1 (G protein-coupled estrogen receptor 1) | SID164367399 | -0.324 | 31.9
GPR155 (G protein-coupled receptor 155) | SID164576444 | -0.466 | 83
GPR155 (G protein-coupled receptor 155) | SID164576445 | -0.165 | 99.1
GPR155 (G protein-coupled receptor 155) | SID164576447 | 0.298 | 57.7
GPR155 (G protein-coupled receptor 155) | SID164576448 | -0.0751 | 81
GABRA4 (gamma-aminobutyric acid type A receptor subunit alpha4) | SID164365705 | 0.109 | 84.4
GABRA4 (gamma-aminobutyric acid type A receptor subunit alpha4) | SID164365706 | 0.643 | 65.4
GABRA4 (gamma-aminobutyric acid type A receptor subunit alpha4) | SID164365708 | -0.065 | 109
GABRA4 (gamma-aminobutyric acid type A receptor subunit alpha4) | SID164365709 | -0.147 | 61.6

As entered above.
PPP1R9B (protein phosphatase 1 regulatory subunit 9B) [SID164546273], log2 vehicle/camptothecin viability → 0.446
Result of GPR155 (G protein-coupled receptor 155) [SID164576447] under “viability with camptothecin (% of control)”: 57.7
GABRA4 (gamma-aminobutyric acid type A receptor subunit alpha4) [SID164365708], viability with camptothecin (% of control) = 109
GPER1 (G protein-coupled estrogen receptor 1) [SID164367398], log2 vehicle/camptothecin viability = -0.184
TIAL1 (TIA1 cytotoxic granule associated RNA binding protein like 1) [SID164391819], viability with camptothecin (% of control): 59.6
Entry of STX2 (syntaxin 2) [SID164363542] under “viability with camptothecin (% of control)”: 90.5

Additional records follow:
gene symbol | PubChem SID | log2 vehicle/camptothecin viability | viability with camptothecin (% of control)
TCF4 (transcription factor 4) | SID164391069 | -0.0896 | 111
TCF4 (transcription factor 4) | SID164391071 | -0.0152 | 89.3
TCF4 (transcription factor 4) | SID164391072 | -0.0026 | 58.7
TCF4 (transcription factor 4) | SID164391074 | -0.469 | 110
PLCB4 (phospholipase C beta 4) | SID164381084 | -0.0436 | 89.3
PLCB4 (phospholipase C beta 4) | SID164381085 | -0.128 | 101
PLCB4 (phospholipase C beta 4) | SID164381086 | 0.0198 | 89.3
IL10RA (interleukin 10 receptor subunit alpha) | SID164371363 | -0.148 | 68.8
IL10RA (interleukin 10 receptor subunit alpha) | SID164371365 | -0.382 | 83.6
IL10RA (interleukin 10 receptor subunit alpha) | SID164371366 | -0.258 | 48
IL10RA (interleukin 10 receptor subunit alpha) | SID164371368 | 0.0108 | 45.1
C1QTNF1 (C1q and TNF related 1) | SID164562118 | -0.496 | 72.6
C1QTNF1 (C1q and TNF related 1) | SID164562119 | -0.807 | 60.7
C1QTNF1 (C1q and TNF related 1) | SID164562120 | -0.369 | 56.5
C1QTNF1 (C1q and TNF related 1) | SID164562124 | 0.047 | 50.3
SORCS2 (sortilin related VPS10 domain containing receptor 2) | SID164494754 | -0.349 | 44.9
SORCS2 (sortilin related VPS10 domain containing receptor 2) | SID164494756 | -0.312 | 107
SORCS2 (sortilin related VPS10 domain containing receptor 2) | SID164494757 | -0.263 | 59.1
FANCD2 (FA complementation group D2) | SID164364223 | -0.605 | 96.8
FANCD2 (FA complementation group D2) | SID164364228 | -0.333 | 96.6
FANCD2 (FA complementation group D2) | SID164364229 | -0.0331 | 109
FANCD2 (FA complementation group D2) | SID164364230 | -0.0943 | 84.2
PPP1R15A (protein phosphatase 1 regulatory subunit 15A) | SID164449318 | -0.261 | 39.8
PPP1R15A (protein phosphatase 1 regulatory subunit 15A) | SID164449320 | -0.278 | 96.5
PPP1R15A (protein phosphatase 1 regulatory subunit 15A) | SID164449321 | -0.363 | 34
PPP1R15A (protein phosphatase 1 regulatory subunit 15A) | SID164449322 | -0.247 | 112
EGF (epidermal growth factor) | SID164362809 | -0.0429 | 94.2
EGF (epidermal growth factor) | SID164362810 | 0.405 | 28.4
EGF (epidermal growth factor) | SID164362811 | -0.702 | 91.2
EGF (epidermal growth factor) | SID164362812 | -0.425 | 70.2
PABPN1 (poly(A) binding protein nuclear 1) | SID164396270 | -0.302 | 90.1
PABPN1 (poly(A) binding protein nuclear 1) | SID164396271 | -0.0454 | 88.5
PAK2 (p21 (RAC1) activated kinase 2) | SID164379389 | -0.336 | 76.6
PAK2 (p21 (RAC1) activated kinase 2) | SID164379392 | -0.116 | 54.4
PAK2 (p21 (RAC1) activated kinase 2) | SID164379393 | -0.176 | 96.8
PAK2 (p21 (RAC1) activated kinase 2) | SID164379395 | -0.158 | 98.6
CACNG4 (calcium voltage-gated channel auxiliary subunit gamma 4) | SID164462364 | -0.428 | 102
CACNG4 (calcium voltage-gated channel auxiliary subunit gamma 4) | SID164462365 | -0.467 | 54.5
CACNG4 (calcium voltage-gated channel auxiliary subunit gamma 4) | SID164462367 | -0.281 | 62.9
CACNG4 (calcium voltage-gated channel auxiliary subunit gamma 4) | SID164462368 | -0.0456 | 95.1
ALDH3A1 (aldehyde dehydrogenase 3 family member A1) | SID164352987 | 0.629 | 29.8
ALDH3A1 (aldehyde dehydrogenase 3 family member A1) | SID164352989 | -0.282 | 83.3
ALDH3A1 (aldehyde dehydrogenase 3 family member A1) | SID164352990 | -0.526 | 39
ALDH3A1 (aldehyde dehydrogenase 3 family member A1) | SID164352991 | -0.592 | 25.6
